The target of assay [1] is human/mouse chimeric LRP6 propeller domain 1 construct 1c. Nature of the assay: FACS on cells expressing the chimeric construct.
For assay [2], the target named is LRP6 D264->N. Briefly: FACS on cells transfected with LRP6 D264->N, FSC-Height against FL2-Height.
Assay [3] addresses LRP6 1a. Briefly: FACS on cells transfected with the human/mouse chimera LRP6 1a, FSC-Height against FL2-Height PE.
Assay [4] addresses LRP6 I236->T. Nature of the assay: FACS on cells transfected with LRP6 I236->T, FSC-Height against FL2-Height.
In assay [5] the target is LRP6 1b. Briefly: FACS on cells transfected with the human/mouse chimera LRP6 1b, FSC-Height against FL2-Height PE.
The target in assay [6] is LRP6 S243->T. Nature of the assay: FACS on cells transfected with LRP6 S243->T (as labelled; the text calls it S243N).

No constants are given. Whether binding was seen depends on the method and setting. For part of these data: A result given as binding can be weak or reduced; the word gives no strength.

B1: anti-LRP6 monoclonal antibody 135.16 (antibody, V domains shown)
VH: QVQLQQSGAELVKPGASVKMSCKAFGYTFTSYPIEWMKQNHGKSLEWIGNFHPYNDNTKYNEKFKGKAKLTVEKSSSTVYLELSRSTSDDSAVYYCARGYSGNYFSAMDYWGQGTSVTVSS
VL: DIVMTQSQKFMSTSVGDRVSITCKASQNVRNDVAWYQQKPGQSPKSLIYLASNRHTGVPDRFTGSGSGTDFTLTISNVQSEDLADYFCLQHWNYPYTFGGGTKLEIKR
Consider B1, for which the binding entry is “no binding” in assay [1]; “binds” in assay [2]; “binds” in assay [3]; “binds” in assay [4]; “binds” in assay [5]; “no binding (tested: not stated)” in assay [6].

Values taken from patent publication US20140220040A1.
